From PubChem BioAssay AID540276 (National Center for Advancing Translational Sciences (NCATS), 2011)
Among all 300,000 compounds or so, about 5,400 (1.8%) were called active. Inconclusive results, whose numbers are uncertain, are shown with a selection of clear calls. Calls follow the shape of the full dose curve; tested in HEK293 cells. Potencies beside an inconclusive call are fits to weak or partial responses and may not hold up.

Test: qHTS for inhibitors of binding or entry into cells for Marburg Virus
Settings: Marburg virus pseudotyped entry inhibition, cell reporter; activity change, negative = inhibition: at 37.8 µM (top of the series) unless noted
% is scaled to controls: 0 for no effect and ±100 for the full control effect; potency is read from the fitted curve at half-maximal effect.

Q: Which Potency does the source give for `COC(=O)c1ccccc1NC(=S)NC(=O)c1ccc(C)cc1` here?
A: Its Potency is “inactive”.

Q: With `N#CCCn1cc(/C=C2\NC(=S)N(c3ccccc3)C2=O)c(-c2ccc(-c3ccccc3)cc2)n1` as the compound, how does the Potency read?
A: Its Potency is inconclusive: 22.4 µM [inhibitor, partial curve, poor fit].

Q: With `CC(C)C1COC(c2cccc3ccccc23)=N1` (stereo unspecified) as the compound, how does the Potency read?
A: The Potency was inconclusive: 18.4 µM [activator, partial curve, poor fit].

Q: For `Cc1oc(-c2ccccc2)nc1CC(=O)O`, which Potency is on record?
A: Its Potency is “inactive”.

Q: For `COc1ccc2nc(NCCCO)[nH]c2c1`, which Potency is on record?
A: Its Potency is “inactive”.

Q: Which Potency does the source give for `O=C(Oc1ccccc1N1C(=O)CCC1=O)c1ccco1` here?
A: Its Potency is “inactive”.

Q: With `CSCCC(N=C(NS(=O)(=O)c1ccccc1)c1ccccc1)C(=O)O` (stereo unspecified) as the compound, how does the Potency read?
A: Its Potency is inconclusive: 5.01 µM [activator, full curve, poor fit].

Q: With `CCN1CCc2nc(NC(=O)c3ccccc3)sc2C1` as the compound, how does the Potency read?
A: Its Potency is “inactive”.

Q: Which Potency does the source give for `COC(=O)c1c(N2C(=O)Nc3ccccc3N2O)sc2c1CCCC2` here?
A: Its Potency is inconclusive: 6.31 µM [inhibitor, single point].

Q: With `CC(NC(=O)c1ccc2c(c1)OCO2)C(c1cccs1)N1CCN(c2ccccc2)CC1` (stereo unspecified) as the compound, how does the Potency read?
A: The Potency was inconclusive: 35.5 µM [inhibitor, single point].

Q: Which Potency does the source give for `CCCN(Cc1nnc(-c2ccccc2Cl)o1)C(=O)c1cc(S(=O)(=O)N2CCOCC2)ccc1F` here?
A: Its Potency is “inactive”.

Q: Which Potency does the source give for `CCN1CCN(C(=S)Nc2ccsc2C(=O)OC)CC1` here?
A: Its Potency is inconclusive: 3.55 µM [activator, single point].

Q: For `O=C(CN1CCCCC1)N1CCCc2c1c(=O)oc1ccc(OCc3ccccc3)cc21`, which Potency is on record?
A: The Potency was inconclusive: 18.3 µM [inhibitor, single point].

Q: For `CC[n+]1c(SC)ccc2cc(OC)ccc21`, which Potency is on record?
A: Its Potency is inconclusive: 0.0052 µM [inhibitor, full curve, poor fit].

Q: For `Cc1cccc(N2CCN(C(=O)C3CCCN(S(=O)(=O)c4ccc(Br)s4)C3)CC2)c1C` (stereo unspecified), which Potency is on record?
A: The Potency was inconclusive: 20 µM [inhibitor, partial curve, poor fit].

Q: For `NNC(=O)C1CC1c1ccccc1` (stereo unspecified), which Potency is on record?
A: The Potency was inconclusive: 15.8 µM [activator, single point].

Q: For `CCOC(=O)C1CCCN(C2CC(=O)N(c3ccc(NC(C)=O)cc3)C2=O)C1` (stereo unspecified), which Potency is on record?
A: Its Potency is inconclusive: 1.41 µM [inhibitor, partial curve, poor fit].

Q: With `CC1=C(O)C(=O)C=C2C1=CC=C1C2(C)CCC2(C)C3CC(C)(C(=O)O)CCC3(C)CCC12C` (stereo unspecified) as the compound, how does the Potency read?
A: Its Potency is active: 2.82 µM.

Q: For `CCOc1ccc(CCNC(=O)C2CCCN(S(C)(=O)=O)C2)cc1OCC` (stereo unspecified), which Potency is on record?
A: The Potency was inconclusive: 39.8 µM [activator, partial curve, poor fit].

Q: With `COc1ccc(C2CC(c3ccccc3)=NN2C(=O)COC(=O)c2cccc(O)c2)cc1` (stereo unspecified) as the compound, how does the Potency read?
A: Its Potency is inconclusive: 12.6 µM [inhibitor, partial curve, poor fit].

Q: Which activity change, negative = inhibition does the source give for `CCc1cccc(C)c1NC(=S)N(CCCN1CCOCC1)Cc1cccnc1` here?
A: Its activity change, negative = inhibition is inconclusive: 6.68% [activator] [at 46.1 µM].

Q: With `COc1ccc2oc(C(=O)Nc3ccc(N4CCOCC4)cc3)c(C)c2c1` as the compound, how does the Potency read?
A: The Potency was inconclusive: 7.08 µM [inhibitor, full curve, poor fit].

Q: For `CCN1CCN(c2ccc(NC(=O)c3ccc4c(c3)OCO4)cc2)CC1`, which Potency is on record?
A: The Potency was inconclusive: 1.12 µM [activator, full curve, poor fit].

Q: With `O=[N+]([O-])c1c(Nc2ccc(Br)cc2)ccc2nonc12` as the compound, how does the Potency read?
A: Its Potency is inconclusive: 1.26 µM [inhibitor, single point].

Q: Which Potency does the source give for `Cc1ccc(/C=C2\SC(N3CCN(C(c4ccccc4)c4ccccc4)CC3)=NC2=O)o1` here?
A: The Potency was inconclusive: 11.2 µM [inhibitor, single point].

Q: Which Potency does the source give for `COc1ccc(NC(=O)Cn2c(=O)n(-c3ccc(OC)cc3OC)c(=O)c3c(C)c(C)sc32)cc1` here?
A: Its Potency is inconclusive: 32.6 µM [inhibitor, single point].

Q: Which Potency does the source give for `Cc1cccc(N2CCN(C(=O)CN3C(=O)COc4ccc(S(=O)(=O)N5CCC(C)CC5)cc43)CC2C)c1` (stereo unspecified) here?
A: The Potency was inconclusive: 15.8 µM [inhibitor, single point].

Q: With `CC(C)(C)NC(=O)C(c1ccc(F)cc1)N(Cc1ccco1)C(=O)c1csnn1` (stereo unspecified) as the compound, how does the Potency read?
A: Its Potency is inconclusive: 2.91 µM [inhibitor, full curve, poor fit].

Q: For `Cc1cc(C)cc(N(CCC#N)C(=O)COC(=O)C2CCN(c3ccc(C(F)(F)F)cn3)CC2)c1`, which Potency is on record?
A: Its Potency is inconclusive: 35.5 µM [inhibitor, partial curve, poor fit].

Q: For `Cn1cc(C(=O)N/N=C/C(Br)=C/c2ccccc2)ccc1=O`, which Potency is on record?
A: Its Potency is “inactive”.

Q: Which Potency does the source give for `COc1ccccc1CNC(=O)C/C(C)=N/NC(=O)Cc1ccccc1` here?
A: Its Potency is inconclusive: 7.3 µM [activator, partial curve, poor fit].

Q: Which Potency does the source give for `O=C(Cc1ccc(S(=O)(=O)N2CCOCC2)s1)Nc1ccc2c(c1)CCC2` here?
A: The Potency was “inactive”.

Q: With `Cc1ccc(Oc2nc3ccccc3n3c(C)nnc23)cc1` as the compound, how does the Potency read?
A: The Potency was inconclusive: 6.51 µM [activator, single point].

Q: For `CN(C(=O)COc1ccccc1)c1nnc(-c2cccnc2)s1`, which Potency is on record?
A: The Potency was inconclusive: 10 µM [activator, partial curve, poor fit].

Q: With `C=C[C@H]1CCC=C2C(=O)CCC[C@H]21` as the compound, how does the Potency read?
A: The Potency was inconclusive: 0.841 µM [activator, single point].

Q: With `CCOc1ccc2nc(NC(=O)c3nc(SCc4ccccc4C)ncc3Cl)sc2c1` as the compound, how does the Potency read?
A: The Potency was “inactive”.

Q: With `COc1ccc(N(CC(=O)NCCC2=CCCCC2)S(=O)(=O)c2ccccc2F)cc1` as the compound, how does the Potency read?
A: Its Potency is inconclusive: 22.4 µM [inhibitor, single point].

Q: With `COc1ccc(NS(=O)(=O)c2ccc3oc(SC(C)C(N)=O)nc3c2)cc1` (stereo unspecified) as the compound, how does the Potency read?
A: Its Potency is inconclusive: 2.82 µM [inhibitor, partial curve].

Q: With `CCCSc1ncc(Cl)c(C(=O)Nc2c(C(=O)c3ccc(C)cc3)oc3ccccc23)n1` as the compound, how does the Potency read?
A: The Potency was inconclusive: 3.16 µM [inhibitor, single point].

Q: Which Potency does the source give for `COc1ccc2c(c1)O[C@@H](c1cccc(C(F)(F)F)c1)[C@H](OC(=O)N[C@H]1CCCc3ccccc31)C2=O` here?
A: The Potency was inconclusive: 0.0376 µM [activator, partial curve, poor fit].

Q: For `CCOCCCN(C(=O)CNC(=O)c1ccco1)C(C(=O)NC1CCCC1)c1ccccc1C` (stereo unspecified), which Potency is on record?
A: Its Potency is “inactive”.
